Experimental data as given in patent publication US20260234178A1, “PYRANOSIDE COMPOUNDS AND METHODS” (JAMES COOK UNIVERSITY, priority 2022, published 2026).
Some results were stated once for a whole list of compounds, not compound by compound. At least one compound was matched to its structure with a doubt left.

System: human PBMCs
Experiment: RealTime-Glo MT cell viability assay on PBMC (cytotoxicity screening)
Assay type: cell-based
Conditions: 10 μg/mL; for luminescent signals (RLU) compared with untreated control cells: human PBMC, 1, 6 and 24 h post-treatment; for toxicity to human PBMCs: up to 24 h

Row | Compound | luminescent signals (RLU) compared with untreated control cells | toxicity to human PBMCs
1 | galloyl-lawsoniaside A [Compound 4] | did not significantly differ | not toxic
2 | CC1=CC(=O)CC(C)(C)[C@@]1(O)/C=C/[C@@H](C)O[C@@H]1O[C@H](CO)[C@@H](O)[C@H](O)[C@H]1O [Compound 3, (6S,9R)-roseoside] | did not significantly differ | not toxic
